In publication PMC8915541 one finds binding data, which are given here for 2 molecules.

Chains of the proteins cited; added tags and fusions are not shown.
UniProt Q14694: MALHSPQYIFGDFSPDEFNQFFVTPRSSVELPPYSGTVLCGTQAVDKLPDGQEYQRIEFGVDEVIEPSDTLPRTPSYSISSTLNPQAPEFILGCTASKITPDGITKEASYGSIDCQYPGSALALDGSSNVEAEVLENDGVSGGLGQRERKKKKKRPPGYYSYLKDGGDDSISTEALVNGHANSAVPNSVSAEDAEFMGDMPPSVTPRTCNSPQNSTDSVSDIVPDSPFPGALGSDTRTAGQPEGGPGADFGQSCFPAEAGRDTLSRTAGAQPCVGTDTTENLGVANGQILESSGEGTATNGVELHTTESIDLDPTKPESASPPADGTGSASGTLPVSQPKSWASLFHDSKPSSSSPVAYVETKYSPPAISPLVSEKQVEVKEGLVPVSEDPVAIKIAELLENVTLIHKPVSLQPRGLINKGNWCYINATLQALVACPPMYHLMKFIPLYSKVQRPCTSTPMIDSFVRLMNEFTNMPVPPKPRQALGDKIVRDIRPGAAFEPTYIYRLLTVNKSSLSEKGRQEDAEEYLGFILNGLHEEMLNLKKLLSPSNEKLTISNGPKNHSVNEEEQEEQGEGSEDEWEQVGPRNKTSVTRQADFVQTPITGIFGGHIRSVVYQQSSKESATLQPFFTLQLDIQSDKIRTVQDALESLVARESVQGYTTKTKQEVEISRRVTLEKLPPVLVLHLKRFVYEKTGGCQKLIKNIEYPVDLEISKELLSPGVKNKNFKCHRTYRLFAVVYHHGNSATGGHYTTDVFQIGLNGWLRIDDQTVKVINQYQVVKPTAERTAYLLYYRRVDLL
UniProt P35222: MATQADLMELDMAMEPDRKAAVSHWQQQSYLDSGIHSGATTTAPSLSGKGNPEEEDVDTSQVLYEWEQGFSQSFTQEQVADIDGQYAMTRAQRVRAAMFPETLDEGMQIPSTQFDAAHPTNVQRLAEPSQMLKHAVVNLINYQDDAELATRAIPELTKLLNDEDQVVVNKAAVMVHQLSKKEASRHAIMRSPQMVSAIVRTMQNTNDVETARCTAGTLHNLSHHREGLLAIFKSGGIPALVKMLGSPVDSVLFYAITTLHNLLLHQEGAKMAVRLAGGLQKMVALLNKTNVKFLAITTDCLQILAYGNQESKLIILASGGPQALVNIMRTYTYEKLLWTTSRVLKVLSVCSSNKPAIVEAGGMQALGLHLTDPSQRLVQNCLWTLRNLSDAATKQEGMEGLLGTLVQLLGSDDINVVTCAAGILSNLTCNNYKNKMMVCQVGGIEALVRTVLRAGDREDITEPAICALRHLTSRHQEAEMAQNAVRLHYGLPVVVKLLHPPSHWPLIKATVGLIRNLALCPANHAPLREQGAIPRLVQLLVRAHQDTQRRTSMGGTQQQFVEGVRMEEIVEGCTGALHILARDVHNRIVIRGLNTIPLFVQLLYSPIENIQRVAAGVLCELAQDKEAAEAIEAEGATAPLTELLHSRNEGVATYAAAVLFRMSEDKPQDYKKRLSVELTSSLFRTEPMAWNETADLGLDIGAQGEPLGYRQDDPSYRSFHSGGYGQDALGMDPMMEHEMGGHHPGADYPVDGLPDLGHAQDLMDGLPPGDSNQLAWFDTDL

Test [1] concerns the target T1, Histone deacetylase 7 (HDAC7) in NSCLC cells (UniProt Q8WUI4).
T1 sequence: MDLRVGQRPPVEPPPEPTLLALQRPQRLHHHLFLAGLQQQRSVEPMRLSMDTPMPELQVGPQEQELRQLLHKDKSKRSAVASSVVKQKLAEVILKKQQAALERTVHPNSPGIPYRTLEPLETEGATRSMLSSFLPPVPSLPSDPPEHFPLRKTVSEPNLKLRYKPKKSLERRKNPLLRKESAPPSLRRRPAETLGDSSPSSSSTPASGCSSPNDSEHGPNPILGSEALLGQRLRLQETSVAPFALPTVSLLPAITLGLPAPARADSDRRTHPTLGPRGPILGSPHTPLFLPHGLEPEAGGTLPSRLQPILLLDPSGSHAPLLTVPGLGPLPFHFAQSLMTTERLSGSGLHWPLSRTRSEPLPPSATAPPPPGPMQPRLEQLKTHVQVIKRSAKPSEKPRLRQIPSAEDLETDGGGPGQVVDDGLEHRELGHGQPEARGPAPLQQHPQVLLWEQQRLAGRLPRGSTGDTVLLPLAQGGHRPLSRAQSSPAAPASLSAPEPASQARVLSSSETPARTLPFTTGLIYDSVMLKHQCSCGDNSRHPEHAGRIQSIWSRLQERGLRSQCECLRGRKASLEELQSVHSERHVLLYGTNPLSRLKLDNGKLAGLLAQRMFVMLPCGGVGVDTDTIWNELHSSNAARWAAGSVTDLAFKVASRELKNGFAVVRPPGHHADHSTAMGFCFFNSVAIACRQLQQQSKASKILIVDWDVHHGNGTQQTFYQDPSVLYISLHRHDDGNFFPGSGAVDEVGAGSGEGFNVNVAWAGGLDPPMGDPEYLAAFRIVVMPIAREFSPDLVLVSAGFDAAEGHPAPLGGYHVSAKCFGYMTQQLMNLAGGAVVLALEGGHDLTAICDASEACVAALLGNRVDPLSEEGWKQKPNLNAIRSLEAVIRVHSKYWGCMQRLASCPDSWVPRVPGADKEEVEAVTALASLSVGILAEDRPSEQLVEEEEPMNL
Briefly: co-IP; HDAC7 and β-catenin in NSCLC cells; whole cell lysates in EBC buffer (50 mM Tris-HCl pH 7.5, 120 mM NaCl, 0.5% NP-40), beads washed 4 times with NETN buffer, western blotting; precipitating antibody not given.

Test [2] addresses Ubiquitin-specific peptidase 10 (USP10) in NSCLC cells (human (endogenous in NSCLC cell lines)) (UniProt Q14694). Briefly: co-IP; HDAC7 overexpressing cells; lysate incubated with anti-USP10 antibody overnight at 4 °C, Protein G magnetic beads, NETN washes, normal IgG as negative control; blot for HDAC7.

These are yes or no findings as the source states them, for the method shown. Binding seen in cells or lysates may run through a third protein. Some binding calls cover weakened binding; strength is not graded here. Sequences can lack the tags named with a protein.

Take β-catenin (from UniProt P35222 1-781): the binding entry in test [1] was “binds”.

B1: Flag-HDAC7 in HDAC7 overexpressing NSCLC cells (protein, UniProt Q8WUI4 1-952)
chain: MDLRVGQRPPVEPPPEPTLLALQRPQRLHHHLFLAGLQQQRSVEPMRLSMDTPMPELQVGPQEQELRQLLHKDKSKRSAVASSVVKQKLAEVILKKQQAALERTVHPNSPGIPYRTLEPLETEGATRSMLSSFLPPVPSLPSDPPEHFPLRKTVSEPNLKLRYKPKKSLERRKNPLLRKESAPPSLRRRPAETLGDSSPSSSSTPASGCSSPNDSEHGPNPILGSEALLGQRLRLQETSVAPFALPTVSLLPAITLGLPAPARADSDRRTHPTLGPRGPILGSPHTPLFLPHGLEPEAGGTLPSRLQPILLLDPSGSHAPLLTVPGLGPLPFHFAQSLMTTERLSGSGLHWPLSRTRSEPLPPSATAPPPPGPMQPRLEQLKTHVQVIKRSAKPSEKPRLRQIPSAEDLETDGGGPGQVVDDGLEHRELGHGQPEARGPAPLQQHPQVLLWEQQRLAGRLPRGSTGDTVLLPLAQGGHRPLSRAQSSPAAPASLSAPEPASQARVLSSSETPARTLPFTTGLIYDSVMLKHQCSCGDNSRHPEHAGRIQSIWSRLQERGLRSQCECLRGRKASLEELQSVHSERHVLLYGTNPLSRLKLDNGKLAGLLAQRMFVMLPCGGVGVDTDTIWNELHSSNAARWAAGSVTDLAFKVASRELKNGFAVVRPPGHHADHSTAMGFCFFNSVAIACRQLQQQSKASKILIVDWDVHHGNGTQQTFYQDPSVLYISLHRHDDGNFFPGSGAVDEVGAGSGEGFNVNVAWAGGLDPPMGDPEYLAAFRIVVMPIAREFSPDLVLVSAGFDAAEGHPAPLGGYHVSAKCFGYMTQQLMNLAGGAVVLALEGGHDLTAICDASEACVAALLGNRVDPLSEEGWKQKPNLNAIRSLEAVIRVHSKYWGCMQRLASCPDSWVPRVPGADKEEVEAVTALASLSVGILAEDRPSEQLVEEEEPMNL
In the case of B1, the binding entry in test [2] is “binds”.
